Test results reported in paper PMC4256260.
These are yes or no findings as the source states them, for the method shown. In cells and extracts the contact can be indirect. A yes stands for co-enrichment or nearness to the bait. Other partners may have been found. Values belong to the molecule of their own block, whether it stands above or below them.

By UniProt entry, the sequences of proteins in these tests, tags left out.
UniProt P69566: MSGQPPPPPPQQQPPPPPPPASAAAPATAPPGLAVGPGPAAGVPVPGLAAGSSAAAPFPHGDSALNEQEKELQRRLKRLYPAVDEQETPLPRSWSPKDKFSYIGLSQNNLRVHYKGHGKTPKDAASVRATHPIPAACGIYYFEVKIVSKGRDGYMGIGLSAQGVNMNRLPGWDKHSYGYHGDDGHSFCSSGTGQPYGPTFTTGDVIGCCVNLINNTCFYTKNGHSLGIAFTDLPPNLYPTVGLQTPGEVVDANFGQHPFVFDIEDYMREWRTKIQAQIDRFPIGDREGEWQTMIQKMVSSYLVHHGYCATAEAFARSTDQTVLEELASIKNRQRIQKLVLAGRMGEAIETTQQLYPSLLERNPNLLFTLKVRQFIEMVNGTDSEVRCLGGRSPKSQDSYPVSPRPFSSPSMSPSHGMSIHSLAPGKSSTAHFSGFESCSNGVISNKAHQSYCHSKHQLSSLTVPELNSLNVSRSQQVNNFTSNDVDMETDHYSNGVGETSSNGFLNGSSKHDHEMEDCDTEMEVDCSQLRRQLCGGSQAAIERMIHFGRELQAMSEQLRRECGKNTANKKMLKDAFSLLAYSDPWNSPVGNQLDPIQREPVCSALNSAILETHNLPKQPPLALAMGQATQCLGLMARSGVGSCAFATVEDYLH
UniProt Q62029: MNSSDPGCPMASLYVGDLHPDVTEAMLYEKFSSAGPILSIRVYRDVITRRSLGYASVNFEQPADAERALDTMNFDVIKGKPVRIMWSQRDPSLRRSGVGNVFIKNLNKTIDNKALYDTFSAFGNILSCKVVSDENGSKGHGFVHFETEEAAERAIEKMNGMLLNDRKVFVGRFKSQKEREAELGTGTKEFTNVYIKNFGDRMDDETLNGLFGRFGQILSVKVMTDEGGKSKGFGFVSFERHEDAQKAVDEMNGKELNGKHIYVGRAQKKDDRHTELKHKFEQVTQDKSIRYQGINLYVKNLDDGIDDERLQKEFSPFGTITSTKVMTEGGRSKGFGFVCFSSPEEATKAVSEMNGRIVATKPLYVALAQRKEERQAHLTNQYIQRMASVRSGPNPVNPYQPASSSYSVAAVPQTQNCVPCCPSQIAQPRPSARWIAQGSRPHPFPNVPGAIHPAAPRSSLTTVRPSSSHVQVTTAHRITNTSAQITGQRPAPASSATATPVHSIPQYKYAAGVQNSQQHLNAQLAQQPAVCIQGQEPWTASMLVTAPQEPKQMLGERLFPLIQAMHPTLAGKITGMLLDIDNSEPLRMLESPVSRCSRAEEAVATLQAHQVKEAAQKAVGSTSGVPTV

Target: RAN-binding protein 9 (RANBP9) (mouse (endogenous in testis)) (UniProt P69566)
Assay: affinity purification with mass spectrometry; mouse monoclonal anti-RANBP9 antibody (or IgG control) on protein G Dynabeads, incubated with pre-cleared P30 mouse testis lysate (TNIP buffer: 20 mM Tris-HCl pH 7.5, 200 mM NaCl, 2.5 mM MgCl2, 0.5% NP-40, 1% Triton X-100, 1 mM DTT) overnight at 4°C; four washes with NT2 buffer; bands unique to the RANBP9 IP excised for MS; three biological replicates

binding: binds
Molecule: poly(A) binding protein PABPC2 (from UniProt Q62029 1-628)

binding: binds
B1: splicing factor SF3B3 (protein, UniProt Q921M3 1-1217)
chain: MFLYNLTLQRATGISFAIHGNFSGTKQQEIVVSRGKILELLRPDPNTGKVHTLLTVEVFGVIRSLMAFRLTGGTKDYIVVGSDSGRIVILEYQPSKNMFEKIHQETFGKSGCRRIVPGQFLAVDPKGRAVMISAIEKQKLVYILNRDAAARLTISSPLEAHKANTLVYHVVGVDVGFENPMFACLEMDYEEADNDPTGEAAANTQQTLTFYELDLGLNHVVRKYSEPLEEHGNFLITVPGGSDGPSGVLICSENYITYKNFGDQPDIRCPIPRRRNDLDDPERGMIFVCSATHKTKSMFFFLAQTEQGDIFKITLETDEDMVTEIRLKYFDTVPVAAAMCVLKTGFLFVASEFGNHYLYQIAHLGDDDEEPEFSSAMPLEEGDTFFFQPRPLKNLVLVDELDSLSPILFCQIADLANEDTPQLYVACGRGPRSSLRVLRHGLEVSEMAVSELPGNPNAVWTVRRHIEDEFDAYIIVSFVNATLVLSIGETVEEVTDSGFLGTTPTLSCSLLGDDALVQVYPDGIRHIRADKRVNEWKTPGKKTIVKCAVNQRQVVIALTGGELVYFEMDPSGQLNEYTERKEMSADVVCMSLANVPPGEQRSRFLAVGLVDNTVRIISLDPSDCLQPLSMQALPAQPESLCIVEMGGTEKQDELGERGSIGFLYLNIGLQNGVLLRTVLDPVTGDLSDTRTRYLGSRPVKLFRVRMQGQEAVLAMSSRSWLSYSYQSRFHLTPLSYETLEFASGFASEQCPEGIVAISTNTLRILALEKLGAVFNQVAFPLQYTPRKFVIHPESNNLIIIETDHNAYTEATKAQRKQQMAEEMVEAAGEDERELAAEMAAAFLNENLPESIFGAPKAGNGQWASVIRVMNPIQGNTLDLVQLEQNEAAFSVAVCRFSNTGEDWYVLVGVAKDLILSPRSVAGGFVYTYKLVNNGEKLEFLHKTPVEEVPAAIAPFQGRVLIGVGKLLRVYDLGKKKLLRKCENKHIANYISGIQTIGHRVIVSDVQESFIWVRYKRNENQLIIFADDTYPRWVTTASLLDYDTVAGADKFGNICVVRLPPNTNDEVDEDPTGNKALWDRGLLNGASQKAEVIMNYHVGETVLSLQKTTLIPGGSESLVYTTLSGGIGILVPFTSHEDHDFFQHVEMHLRSEHPPLCGRDHLSFRSYYFPVKNVIDGDLCEQFNSMEPNKQKNVSEELDRTPPEVSKKLEDIRTRYAF
